Assay results reported in US9255062B2, “Fatty acid derivatives for oral administration endowed with high palatability” (priority 2008, dated 2016).
Some results were stated once for a whole list of compounds, not compound by compound. Some ranges recur; such a range may be that of the whole group of compounds.

System: Caco-2 cells
Test: Ussing chamber, short circuit current in Caco-2 monolayer, baseline conditions
Format: cell-based, human
Conditions: luminal (mucosal) side, Caco-2 in Ussing chamber
Description: The experiments were carried out using a human intestinal cell line called Caco-2, obtained from the American Type Culture Collection (ATCC, Rockville, USA). These cells, 15 days after confluence, form a monolayer of enterocytes with morphological and functional features identical to those of ileal enterocytes at the apex of the villus (Berni Canani R, et al. Gastroenterology 2003; 124:368-76). Cells were grown in a culture medium consisting in Dulbecco's Modified Eagle's Medium (DMEM) containing glucose (4.5 g/L), 10% Fetal Calf Serum (FCS), 1% non-essential amino acids, 1% L-glutamine, 1% sodium pyruvate, streptomycin ([…]), penicillin ([…]), and were incubated at 37° C. in an atmosphere of 5% CO2 and […]. The culture medium was replaced every day.
For all the experiments were used cells at the 30th-40th pass, 2×10^6 cells per filter, grown on polycarbonate supports (pore size 0.4 μm, diameter 24.5 mm) for 15 days post-confluence. Each support containing the cells was mounted in an Ussing chamber (World Precision Instruments, Sarasota, Fla.) as a cellular monolayer between the luminal and the serosal compartments (Berni Canani R, et al. J. Pediatr. Gastroenterol. Nutr. 28: 315-320, 1999). The Ussing chamber system, allows through the measurement of defined electrical parameters, the study of transepithelial transport of water and electrolytes. These parameters consist in: 1) transepithelial potential difference (PD) and short circuit current (Isc), an expression of the transepithelial passage of ions; 2) resistance (RT) and, ionic conductance (G), a measure of tissue integrity. An absorptive-type stimulus on transepithelial transport induces a decrease in Isc, whereas a secretory-type stimulus induces an increase in Isc. The Isc is expressed in microamperes per square centimeter (μA/cm^2), conductance in millisiemens per square centimeter (mS/cm^2) and the transepithelial potential difference in millivolts (mV). […]

CCCC(=O)NC(=O)C(Cc1ccccc1)NC(=O)CCC (stereo not drawn) [Compound 2, N-(1-butyroyl-carbamoyl-2-phenyl-ethyl)butyramide]
time of maximum decrease in Isc after addition: 25 to 55 min

CCCC1=NC(=O)C(Cc2ccccc2)N1 (stereo not drawn) [Compound 3, 5-benzyl-2-propyl-1H-imidazol-4(5H)-one]
time of maximum decrease in Isc after addition: 25 to 55 min

CCCC(=O)NC(Cc1ccccc1)C(N)=O (stereo not drawn) [Compound 1, N-(1-carbamoyl-2-phenyl-ethyl)butyramide]
time of maximum decrease in Isc after addition (listed as compound 1): 25 to 55 min
